Results as given in ChEMBL document CHEMBL4665673, “Monomeric Targeted Protein Degraders” (J Med Chem, 2020).

Test: cells
Details: Homo sapiens, SKNBE2, 72 h

EC50: 40.9 nM
SMILES: COc1cc(Nc2ncc3c(n2)-c2ccc(Cl)cc2C(c2c(F)cccc2OC)=NC3)ccc1C(=O)O [ALISERTIB]
